Molecules are shown by their SMILES. The list shows a part of the results. Further columns of the screen follow, without active or inactive calls. Compounds called inactive in the main read-out are mostly missing here. Potencies come from curve fits of mixed quality, noted in brackets.

The values below come from PubChem BioAssay (NCATS).

One test in a line: qHTS for identification of novel therapeutic agents for treatment of microphthalmiaassociated transcription factor (MiT) renal cell carcinoma (RCC) (AID 1963991). The settings on record: TFE3-RCC viability, CellTiter-Glo, 48 h; measured here: UOK124 cell viability. In outline: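 Three TFE3-fusion RCC cell lines (UOK109, UOK124, UOK145), 500 cells/well, were exposed to the 1912-compound MIPE 4.0 library for 48 hours at 37 C. Viability was read by CellTiter-Glo luminescence, normalised to DMSO (100%) and empty wells (0%), with 11-concentration curve fits.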
Background: Quantitative high-throughput screening tests each substance at several concentrations.
Take `CC(C)NCC(O)COc1ccc(COCCOC(C)C)cc1` (configuration not stated): the concentration at half-maximal activity (AC50) was 0.0209 µM [rising, full curve, poor fit].

Take `Cc1cccc(CN2CCN(C(c3ccccc3)c3ccc(Cl)cc3)CC2)c1` (configuration not stated): the concentration at half-maximal activity (AC50) is 26.4 µM [falling, partial curve, poor fit].

Regarding `CN(C)CCC=C1c2ccccc2C=Cc2ccccc21`, the half-maximal activity concentration (AC50) is 14.8 µM [falling, single point].

`COc1ccc(CCN(C)CCCOc2ccc(S(=O)(=O)c3[nH]c4ccccc4c3C(C)C)cc2)cc1OC`: the AC50 is 23.5 µM [falling, single point].

The same test, now with this note: TFE3-RCC viability, CellTiter-Glo, 48 h; measured here: UOK145 Z-AUC; stronger effect = lower value.
`CC(C)NCC(O)COc1ccc(COCCOC(C)C)cc1` (configuration not stated) returned a z-score of 2.93.

As to `CC1COc2c(N3CCN(C)CC3)c(F)cc3c(=O)c(C(=O)O)cn1c23` (configuration not stated), the z-score is -0.0295.

With `Cc1[nH]c(=O)c(C#N)cc1-c1ccncc1`, the z-score came out at 0.19.

Compound `Cc1cccc(CN2CCN(C(c3ccccc3)c3ccc(Cl)cc3)CC2)c1` (configuration not stated) yielded a z-score of -0.0667.

As for `Clc1ccccc1C(c1ccccc1)(c1ccccc1)n1ccnc1`, the z-score turned out to be 0.279.

`CCN(CC)CCCC(C)Nc1ccnc2cc(Cl)ccc12` (configuration not stated) came in with a z-score of -0.0305.

As to `CCC1(c2ccccc2)C(=O)NCNC1=O`, the z-score is -0.559.

Compound `CN(C)CCC=C1c2ccccc2C=Cc2ccccc21` returned a z-score of 0.688.

Compound `NC(=NCc1ccccc1)NC(=O)c1nc(Cl)c(N)nc1N` had a z-score of -0.0201.

`Nc1nc(OCc2ccccc2)c2[nH]cnc2n1`: the z-score is 0.731.

Compound `COc1ccc(CCN(C)CCCOc2ccc(S(=O)(=O)c3[nH]c4ccccc4c3C(C)C)cc2)cc1OC` had a z-score of 0.399.

As for `NC(=O)c1cccc(N)c1`, the z-score amounted to 0.602.

In turn, `CC(=O)Oc1ccccc1C(=O)O` yielded a z-score of 0.187.

`COc1cccc(-c2cc(=O)c3ccccc3o2)c1N` displayed a z-score of -0.374.

For the compound `CC(COc1ccccc1)N(CCCl)Cc1ccccc1` (configuration not stated), the z-score was -1.95.

The test is the same for the next values; noted with them: TFE3-RCC viability, CellTiter-Glo, 48 h; measured here: UOK145 cell viability.
For `CC1COc2c(N3CCN(C)CC3)c(F)cc3c(=O)c(C(=O)O)cn1c23` (configuration not stated), the AC50 is 5.26 µM [falling, partial curve, poor fit].

`Clc1ccccc1C(c1ccccc1)(c1ccccc1)n1ccnc1`: the AC50 is 14.8 µM [falling, partial curve, poor fit].

For the compound `CCN(CC)CCCC(C)Nc1ccnc2cc(Cl)ccc12` (configuration not stated), the AC50 is 10.5 µM [falling, partial curve, poor fit].

Consider `CCC1(c2ccccc2)C(=O)NCNC1=O`, for which the AC50 is 6.62 µM [falling, full curve].

For `NC(=NCc1ccccc1)NC(=O)c1nc(Cl)c(N)nc1N`, the half-maximal activity concentration (AC50) is 14.8 µM [falling, partial curve].

Take `COc1ccc(CCN(C)CCCOc2ccc(S(=O)(=O)c3[nH]c4ccccc4c3C(C)C)cc2)cc1OC`: the half-maximal activity concentration (AC50) was 0.935 µM [falling, partial curve, poor fit].

Take `CC(=O)Oc1ccccc1C(=O)O`: the half-maximal activity concentration (AC50) is 29.6 µM [falling, single point].

`COc1cccc(-c2cc(=O)c3ccccc3o2)c1N`: the concentration at half-maximal activity (AC50) is 20.9 µM [falling, partial curve].

For orientation: AC50 means the concentration giving half of the maximal activity seen.
